{"source": "PubChem BioAssay AID1259254 (NCATS, 2017)", "screen": "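Genome-wide screen for genes that prevent DNA re-replication in cancer cells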 (primary screen)", "cells": "human HCT116 colorectal cancer cells", "knock-down reagent": "single siRNA against human genes", "timing": "3 days", "measured": "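Nuclei stained with Hoechst and imaged; cell-cycle phase assigned by DNA content; G2 share scaled per plate, non-targeting siRNA 0%, GMNN siRNA 100%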", "direction": "G2 robust z-score: higher = more G2 cells, more excess DNA replication", "call rule": "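Active siRNAs have a G2 robust z of 5 or more median absolute deviations over the median, which in these data means about 38% or higher of GMNN control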", "note": "Here is one part, drawn at random, of about 59,000 reagents tested. About 1,550 of them (2.6%) count as active. 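G2 share is only a proxy for re-replication; each gene was hit by three separate siRNAs, and active genes were retested.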 A number with no mark means an inactive call. Reagents against one gene are numbered here. Not all columns of the deposit are shown. The record does not give: the amount of reagent."}
{"Target gene": "AKR1C6P (aldo-keto reductase family 1 member C6, pseudogene)", "reagent": 1, "G2 robust z-score": 0.0803}
{"Target gene": "AKR1C6P (aldo-keto reductase family 1 member C6, pseudogene)", "reagent": 2, "G2 robust z-score": -1.2}
{"Target gene": "AKR1C6P (aldo-keto reductase family 1 member C6, pseudogene)", "reagent": 3, "G2 robust z-score": 2.84}
{"Target gene": "PHACTR2 (phosphatase and actin regulator 2)", "reagent": 1, "G2 robust z-score": -0.11}
{"Target gene": "PHACTR2 (phosphatase and actin regulator 2)", "reagent": 2, "G2 robust z-score": 3.56}
{"Target gene": "PHACTR2 (phosphatase and actin regulator 2)", "reagent": 3, "G2 robust z-score": 0.64}
{"Target gene": "VCY (variable charge Y-linked)", "reagent": 1, "G2 robust z-score": 0.267}
{"Target gene": "VCY (variable charge Y-linked)", "reagent": 2, "G2 robust z-score": -0.622}
{"Target gene": "VCY (variable charge Y-linked)", "reagent": 3, "G2 robust z-score": 2.08}
{"Target gene": "ZNF132 (zinc finger protein 132)", "reagent": 1, "G2 robust z-score": -0.442}
{"Target gene": "ZNF132 (zinc finger protein 132)", "reagent": 2, "G2 robust z-score": -0.864}
{"Target gene": "ZNF132 (zinc finger protein 132)", "reagent": 3, "G2 robust z-score": 1.66}
{"Target gene": "AHCYL2 (adenosylhomocysteinase like 2)", "reagent": 1, "G2 robust z-score": -1.28}
{"Target gene": "AHCYL2 (adenosylhomocysteinase like 2)", "reagent": 2, "G2 robust z-score": -0.724}
{"Target gene": "AHCYL2 (adenosylhomocysteinase like 2)", "reagent": 3, "G2 robust z-score": -0.162}
{"Target gene": "HGD (homogentisate 1,2-dioxygenase)", "reagent": 1, "G2 robust z-score": -0.734}
{"Target gene": "HGD (homogentisate 1,2-dioxygenase)", "reagent": 2, "G2 robust z-score": 1.86}
{"Target gene": "HGD (homogentisate 1,2-dioxygenase)", "reagent": 3, "G2 robust z-score": -0.271}
{"Target gene": "ZNF33A (zinc finger protein 33A)", "reagent": 1, "G2 robust z-score": -0.657}
{"Target gene": "ZNF33A (zinc finger protein 33A)", "reagent": 2, "G2 robust z-score": 0.276}
{"Target gene": "ZNF33A (zinc finger protein 33A)", "reagent": 3, "G2 robust z-score": -0.223}
{"Target gene": "PTPN3 (protein tyrosine phosphatase non-receptor type 3)", "reagent": 1, "G2 robust z-score": 0.38}
{"Target gene": "PTPN3 (protein tyrosine phosphatase non-receptor type 3)", "reagent": 2, "G2 robust z-score": 0.215}
{"Target gene": "PTPN3 (protein tyrosine phosphatase non-receptor type 3)", "reagent": 3, "G2 robust z-score": 0.674}
{"Target gene": "REST (RE1 silencing transcription factor)", "reagent": 1, "G2 robust z-score": 1.04}
{"Target gene": "REST (RE1 silencing transcription factor)", "reagent": 2, "G2 robust z-score": -0.204}
{"Target gene": "REST (RE1 silencing transcription factor)", "reagent": 3, "G2 robust z-score": -0.325}
{"Target gene": "KIF2A (kinesin family member 2A)", "reagent": 1, "G2 robust z-score": -0.345}
{"Target gene": "KIF2A (kinesin family member 2A)", "reagent": 2, "G2 robust z-score": 3.96}
{"Target gene": "KIF2A (kinesin family member 2A)", "reagent": 3, "G2 robust z-score": -0.773}

Looked up above.
REST (RE1 silencing transcription factor) #2, G2 robust z-score: -0.204
KIF2A (kinesin family member 2A) #1, G2 robust z-score: -0.345
